Test results taken from PubChem BioAssay AID463205 (Broad Institute, 2010).
The whole screen tested about 2,400 compounds, of which about 20 (0.8%) were called active.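 How the source made its calls: active means AC50 no more than ten times the highest tested concentration, or full inhibition at every dose giving a flat fit (cut at about 30 µM in these data); inconclusive means flat fit with activity between 30% and 70%, or poor-quality invalid fit; inactive means AC50 more than ten times the top tested dose.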 This is one part of the list.

assay: inhibitors of ADP-Glo detection reagents, dose response, artefact control for GSK-3a inhibitor project, biochemical, luminescence, cell-free, homogeneous (AID 463205); conditions: 5 uM ADP;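 further: kinase-free counter-screen against the ADP-Glo detection reagents only; potency is for inhibitors that reduce the luminescence signal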

AC50, inactive:
Nn1c(SCc2ccccc2F)nnc1-c1ccncc1 > 30 µM
Cc1csc(NC(=O)C2CCCN(S(=O)(=O)c3cnc[nH]3)C2)n1 (stereo not given) > 30 µM
Cc1ccc(NC(=O)CSCc2ccco2)cc1 > 30 µM
Cc1ccc(CNc2nc(N)c([N+](=O)[O-])c(NCc3ccccc3)n2)cc1 > 30 µM
COc1cc(-c2cc(=O)c3c(O)cc(O)cc3o2)ccc1O > 30 µM
CCOC(=O)c1nnn(-c2nonc2N)c1C > 30 µM
Nc1nc(SCCOc2ccccc2)n[nH]1 > 30 µM
COc1cccc(Cn2nnc(C(=O)Nc3cc(Cl)ccc3OC)c2N)c1 > 30 µM
O=C(CSc1nnc(SCc2ccc(Cl)cc2)s1)N/N=C/c1ccc(C(=O)O)cc1 > 30 µM
CCN(CC)c1ccc2ccc(=O)oc2c1 > 30 µM
CC1(C)Cc2c(sc3c2C2=NCCN2C=N3)CO1 > 30 µM
COc1cc2sc(C)nc2c2ccccc12 > 30 µM
COc1ccc(C(=O)OCC(=O)Nc2c(C)n(C)n(-c3ccccc3)c2=O)cc1 > 30 µM
CSc1ccc(C2C3(C#N)C(N)=NC4(OCCO4)C23C#N)cc1 (stereo not given) > 30 µM
C[C@H]1CN([C@@H](C)CO)C(=O)c2cccc(NC(=O)c3cnccn3)c2O[C@@H]1CN(C)S(=O)(=O)c1ccc(F)cc1 > 30 µM
CCOc1ccc(-c2nonc2NC(=O)c2ccco2)cc1 > 30 µM
O=C(CSCc1ccc([N+](=O)[O-])cc1)NN=C1CCCCCC1 > 30 µM
CC(Oc1ccccc1)C(=O)Nc1nnc(C2CCCCC2)s1 (stereo not given) > 30 µM
Cc1ccccc1CSc1nnc(-c2ccncc2)n1C > 30 µM
COc1ccccc1NC(=O)CCSc1nnc(-c2ccc(O)cc2)o1 > 30 µM
O=c1[nH]nnc2sc3c(c12)CCCC3 > 30 µM
O=C1/C(=C/c2ccc3c(c2)OCO3)Oc2cc(OCC(=O)N3CCC[C@H]3C(=O)O)ccc21 > 30 µM
Oc1[nH]c2ccccc2c1N=Nc1ccccc1 > 30 µM
CCOC(=O)c1nc(NCc2cccc(OC)c2)c2ccccc2n1 > 30 µM
COc1ccc(-c2csc(Nc3ccc(O)cc3)n2)cc1 > 30 µM
COc1ccc2ccccc2c1/C=N/NC(=O)c1sc(N)c(C#N)c1C > 30 µM
O=c1[nH]cnc(O)c1N=Nc1ccccc1 > 30 µM
COC1(OC)N=C(N)C2(C#N)C(c3cccc(Oc4ccccc4)c3)C12C#N (stereo not given) > 30 µM
O=C(COc1ccccc1F)NC1CC1 > 30 µM
Cc1c(C)n(CCCN(C)C)c2ncnc(NC3CCCCC3)c12 > 30 µM
N#CC1=C2SCN(c3ccccc3)CN2C(=O)CC1c1c(Cl)cccc1Cl (stereo not given) > 30 µM
Cc1cnn(-c2cc(N/N=C/c3ccccc3)ncn2)c1 > 30 µM
CN1/C(=C/C(=S)NC(=O)C2(C)CC2(Cl)Cl)C(C)(C)c2ccccc21 (stereo not given) > 30 µM
O=C(CSc1cccs1)Nc1ccc(Cl)cc1 > 30 µM
O=C(CSc1ccccc1)Nc1nnc(C2CC2)s1 > 30 µM
COc1cccc(OCc2cc(C(=O)NCc3ccc4c(c3)OCO4)no2)c1 > 30 µM
O=C(CSc1ccc2nnc(-c3ccccn3)n2n1)N1CCOCC1 > 30 µM
COC(=O)C1=C(C)Nc2ncnn2C1c1ccccn1 (stereo not given) > 30 µM
COc1ccc(OCc2nc(N)nc(Nc3ccccc3)n2)cc1 > 30 µM
N#Cc1c(Nc2ccccc2)c(/C=N/N=C/c2ccccc2)c[nH]c1=O > 30 µM
Cc1sc(NC(=O)CSc2nc(N)cc(N)n2)c(C#N)c1C > 30 µM
NS(=O)(=O)c1ccc(Nc2nc(-c3ccccc3)cs2)cc1 > 30 µM
CN(Cc1c(C(=O)N/N=C/c2ccc(O)cc2)nnn1-c1nonc1N)c1ccccc1 > 30 µM
Cc1ccc(-c2nc3n(n2)Cc2ccccc2-3)cc1 > 30 µM
C(=N\Nc1ncnc2sc3c(c12)CCC3)/c1ccncc1 > 30 µM
Cc1ccc(-c2nc3ncccn3c2NC2CCCC2)o1 > 30 µM
CC1(C)CC(=O)C=C(c2cccc(O)c2)C1 > 30 µM
CCOC(=O)N1CCC(N2CCN(S(=O)(=O)c3ccc(OC)cc3)CC2)CC1 > 30 µM
NC(=O)c1ccsc1NC(=O)C1CC1 > 30 µM
CCOC1(OCC)N=C(N)C2(C#N)C(c3cccc(C)c3)C12C#N (stereo not given) > 30 µM
O=C(CSc1nc2[nH]ncc2c(=O)n1-c1ccccc1)NCc1cccs1 > 30 µM
O=c1[nH]nc(SCCS(=O)(=O)c2ccc(F)cc2)n1-c1ccccc1 > 30 µM
COc1ccc(-c2noc(CCC(=O)Nc3nc4ccccc4s3)n2)cc1 > 30 µM
COc1ccc(CCNc2cc(C)nc(N)n2)cc1OC > 30 µM
Cc1cc(C(=O)N/N=C/c2cc(N=Nc3ccccc3)ccc2O)n[nH]1 > 30 µM
COc1ccccc1Nc1nc(NCCCCO)nc(N2CCCC2)n1 > 30 µM
CCCC(=O)NNC(=O)c1c(O)c2ccccc2[nH]c1=O > 30 µM
COc1ccc(C(=O)OCC(=O)Nc2ncc([N+](=O)[O-])s2)cc1OC > 30 µM
COc1cccc(-c2cc(C(=O)N3CCN(c4ccccc4OC)CC3)no2)c1 > 30 µM
COc1cc(O)c(NC(C)=O)c2nonc12 > 30 µM
C=CCc1cccc(/C=N/n2c(C)nnc2C)c1O > 30 µM
O=C(CSc1nc2nc(-c3cccs3)cc(C(F)(F)F)c2c(=O)[nH]1)Nc1ccc(F)c(F)c1 > 30 µM
Cc1ccc(CNc2ccc([N+](=O)[O-])cc2C(N)=O)cc1 > 30 µM
Cc1csc(NC(=O)/C=C/c2ccc3c(c2)OCO3)n1 > 30 µM
Cc1ccc(CSCCNC(=O)c2ccc(C)cc2)cc1 > 30 µM
COC(=O)c1cc(OC)nc2ccc(Br)cc12 > 30 µM
CNc1ccc(/C=C/C(=O)c2ccc3c(c2)OCCO3)cc1[N+](=O)[O-] > 30 µM
COC(=O)c1ccc(CSc2nnc(-c3ccncc3)n2Cc2ccccc2)o1 > 30 µM
COC(=O)c1ccc(CSc2ccc3nnc(-c4ccc(OC)cc4)n3n2)o1 > 30 µM
CC(C)(C)NC(=O)/C(=C/c1ccccc1F)NC(=O)c1ccc([N+](=O)[O-])cc1 > 30 µM
Cn1ccnc1SCC(=O)Nc1ccc(Cl)cn1 > 30 µM
CC(C)(C)c1ccc(CSc2nnc(-c3ccccc3NC(=O)c3ccccc3)o2)cc1 > 30 µM
CC1CCN(Cc2c(C(=O)N/N=C/c3ccc(C(C)(C)C)cc3)nnn2-c2nonc2N)CC1 > 30 µM
O=c1[nH]c2c(s1)C(c1ccco1)C1C3CCC(C3)C1S2 (stereo not given) > 30 µM
C=CCN=C1NN=C(c2ccc3c(c2)OCCO3)CS1 > 30 µM
Cc1cc2nc(-c3ccc(SCC(=O)NC(C)C)nc3)[nH]c2cc1C > 30 µM
CC(=O)C1C(c2ccc(C)cc2)c2c(n[nH]c2C)CC1(C)O (stereo not given) > 30 µM
CCCC(=O)Nc1nn(CCC)c2nc3ccccc3cc12 > 30 µM
Cc1ccc(NC(=O)CSCc2nc3c(nnn3Cc3ccc(F)cc3)c(=O)[nH]2)c(C)c1 > 30 µM
NC(=O)c1cc(Br)cc2c3c([nH]c12)CCCC3 > 30 µM
Cc1c(C(=O)N2CCN(c3ccccc3)CC2)oc2c(Cl)cccc12 > 30 µM
COc1ccccc1-n1c(=O)c2c3c(sc2n2c(=S)[nH]nc12)CCC3 > 30 µM
O=[N+]([O-])c1cc(C(F)(F)F)ccc1NCCCN1CCOCC1 > 30 µM
CC(=O)c1sc(NC(=O)c2ccc3c(c2)OCO3)nc1C > 30 µM
CCOc1cccc2sc(=NC(=O)c3ccco3)n(CC(=O)OC)c12 > 30 µM
COc1ccc([N+](=O)[O-])cc1NC(=O)CCN1CCN(CCO)CC1 > 30 µM
CCC(=O)NCCNc1ccc([N+](=O)[O-])cn1 > 30 µM
CC1(C)Cc2cccc(C(=O)NCc3ccco3)c2O1 > 30 µM
CC12CCC(C(=O)Nc3ncc([N+](=O)[O-])s3)(OC1=O)C2(C)C (stereo not given) > 30 µM
Nc1ncnc2c1ncn2[C@@H]1O[C@H](CNCc2ccccc2)[C@@H](O)[C@H]1O > 30 µM
c1ccc2c(CCNc3ncnc4nc[nH]c34)c[nH]c2c1 > 30 µM
NC(=O)c1ccc(NC(=O)CSc2nnc(-c3ccc4c(c3)OCO4)o2)cc1 > 30 µM
CCOc1cccc(-c2c(C(=O)N/N=C/c3cccnc3)nnn2-c2nonc2N)c1 > 30 µM
COc1ccc(C(=O)O/N=C(\N)c2ccccn2)c(OC)c1 > 30 µM

Nothing new here: an excerpt of the list.
AC50, inactive:
CC(=O)C1C(c2ccc(C)cc2)c2c(n[nH]c2C)CC1(C)O (stereo not given) > 30 µM
CCCC(=O)Nc1nn(CCC)c2nc3ccccc3cc12 > 30 µM
Cc1ccc(NC(=O)CSCc2nc3c(nnn3Cc3ccc(F)cc3)c(=O)[nH]2)c(C)c1 > 30 µM

Following part:

AC50, active:
Cc1cccc(/C(N)=N/OC(=O)c2ccc3c(c2)OCO3)c1 27.3 µM
